In EP2371816A1, “Aminocyclohexenone, their preparation and use as medicament against oxidative stress” (ABIOGEN PHARMA S.p.A., priority 2010, dated 2011):

System: cerebral oxidative stress induced in mice by doxorubicin
Experiment: In vivo assay of cerebral oxidative stress induced in mice by doxorubicin
Method: The assay was carried out on compounds (1) and (3)-(6) and on edaravone (E) as comparative compound.
10 mice were used for each treatment group. For each compound 50 mg/kg were administered intraperitoneally (IP) for three consecutive days (day 0, 1 and 2); half the animals (5) also received IP 16.7 mg/kg of doxorubicin immediately after the first treatment (day 0). On the day after the last administration (day 3) the animals were killed by neck dislocation and the brains were removed, weighed and frozen in liquid nitrogen.
For the analyses of oxidative stress, 100 mg/ml of brain homogenate was prepared in Hebe buffer (pH 7.4 EDTA/HEPES^(**)) containing a mixture of enzyme inhibitors (Leupeptin, Pepstatin, Aprotinin, BHA). • ^(*) Hypotonic Extraction Buffer • ^(**) 4-2-hydroxyethyl-1-piperazinyl-ethanesulphonic acid
The evaluation parameters were: • BrW/BWi: ratio between final brain weight and initial body weight (day 0); • Prot. Hmg: total proteins in the homogenate (BCA method, i.e. bicinchoninic acid); • Prot. Ox: oxidized proteins in the Hmg by means of a colorimetric method using […] (DNPH); • GSH: reduced glutathione in the supernatant (sn) of the Hmg, obtained after precipitation with metaphosphoric acid (MPA), by means of a colorimetric method using […] (DTNB); • CAT: catalase in the Hmg by a colorimetric method using potassium dichromate; • SOD: superoxide dismutase by a colorimetric method using SOD Reagent (xanthine, EDTA, nitroblue tetrazole, Na2CO3, BSA, i.e. bovine serum albumin); • GST: glutathione S-transferase in the supernatant by a colorimetric method using chlorodinitrobenzene (CDNB) and GSH; and • GPx: glutathione peroxidase in the supernatant after addition of GSH and tert butyl hydroperoxide (t-BuOOH), heating and precipitation with MPA; followed by GSH method with DTNB.
All the parameters, with the exclusion of Brain/BWi and Prot. Hmg, were normalized for total Hmg proteins (Table 3). The D value standard deviations and the % incidence relative to V are given in italics.
The mean % effect, on all the parameters simultaneously, of the triple treatment in the healthy animals, as mean percentage variation relative to the vehicle (table 4). This value is useful as an approximate safety index of the oxidative state of the brain, i.e. the capacity of the compounds of the invention not to alter cerebral homeostasis in healthy animals.
The effect of the tested compounds on the "oxidized" animals was given as % inhibition relative to the percentage variation due to doxorubicin alone. The effect of the compounds on the oxidized animals can be expressed both as a function of the values of the vehicle (healthy, vehicle only) and as a function of the value of its own control (healthy, compound only): • Vehicle: percentage [(Compound+D)/V]x100/[(V+D)/V]x100 • Its own: percentage [(Compound+D)/Compound]x100/[(V+D)/V]x100

[1] = difference doxorubicin minus vehicle
[2] = doxorubicin group (D), mean of n=5 experiments, normalized for total Hmg proteins

COc1cccc2c1C(=O)c1c(O)c3c(c(O)c1C2=O)C[C@@](O)(C(=O)CO)C[C@@H]3O[C@H]1C[C@H](N)[C@H](O)[C@H](C)O1 [D, doxorubicin, reference compound]
%D Brain/BWi (% incidence of D relative to V): 93.1% | %D CAT (% incidence of D relative to V): 86.8% | %D GPX (% incidence of D relative to V): 90.1% | %D GSH (% incidence of D relative to V): 87.5% | %D GST (% incidence of D relative to V): 90.9% | %D Prot. Hmg (% incidence of D relative to V): 108.3% | %D Prot. Ox (% incidence of D relative to V): 117.2% | %D SOD (% incidence of D relative to V): 85.7% | Diff. D-V Brain/BWi [1]: -1.3600 g/kg | Diff. D-V CAT [1]: -0.3027 U/mg | Diff. D-V GPX [1]: -0.5843 U/mg | Diff. D-V GST [1]: -1.9000 µg/mg | Diff. D-V Prot. Hmg [1]: 0.7397 mg/mL | Diff. D-V Prot. Ox [1]: 0.4347 µmol H2O2/mg | Diff. D-V SOD [1]: -5.3400 mU/mg | CAT [2]: 1.9460 U/mg | GPX [2]: 5.0010 U/mg | GST [2]: 18.5067 µg/mg | Prot. Ox [2]: 2.7720 µmol H2O2/mg | SOD [2]: 31.2667 mU/mg
